In paper PMC12222077:
Results are given in words; binding and its absence hold for the method and conditions named. In cells and extracts the contact can be indirect. Some entries that bind do so weakly or less than the wild type. Where a sequence is shown, tags or fusion partners need not be part of it.

The chains behind the UniProt entries cited, without tags or fusion partners.
UniProt Q13177: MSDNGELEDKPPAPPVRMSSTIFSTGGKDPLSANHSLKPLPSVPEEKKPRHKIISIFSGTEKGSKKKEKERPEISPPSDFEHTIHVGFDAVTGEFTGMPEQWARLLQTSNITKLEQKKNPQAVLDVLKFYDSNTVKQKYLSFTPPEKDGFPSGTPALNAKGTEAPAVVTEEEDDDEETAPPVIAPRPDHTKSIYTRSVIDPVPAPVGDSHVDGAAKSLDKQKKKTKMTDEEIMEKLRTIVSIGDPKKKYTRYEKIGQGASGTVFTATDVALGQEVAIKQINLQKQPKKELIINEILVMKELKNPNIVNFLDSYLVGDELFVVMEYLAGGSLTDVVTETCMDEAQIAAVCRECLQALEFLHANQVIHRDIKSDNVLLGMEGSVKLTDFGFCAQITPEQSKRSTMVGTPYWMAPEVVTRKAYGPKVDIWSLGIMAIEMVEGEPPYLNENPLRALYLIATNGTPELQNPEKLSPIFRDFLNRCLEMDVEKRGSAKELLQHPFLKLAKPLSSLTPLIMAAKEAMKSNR

T1: Protein phosphatase 1 regulatory subunit 12B (PPP1R12B), Flag-tagged (human) (UniProt O60237)
T1 sequence: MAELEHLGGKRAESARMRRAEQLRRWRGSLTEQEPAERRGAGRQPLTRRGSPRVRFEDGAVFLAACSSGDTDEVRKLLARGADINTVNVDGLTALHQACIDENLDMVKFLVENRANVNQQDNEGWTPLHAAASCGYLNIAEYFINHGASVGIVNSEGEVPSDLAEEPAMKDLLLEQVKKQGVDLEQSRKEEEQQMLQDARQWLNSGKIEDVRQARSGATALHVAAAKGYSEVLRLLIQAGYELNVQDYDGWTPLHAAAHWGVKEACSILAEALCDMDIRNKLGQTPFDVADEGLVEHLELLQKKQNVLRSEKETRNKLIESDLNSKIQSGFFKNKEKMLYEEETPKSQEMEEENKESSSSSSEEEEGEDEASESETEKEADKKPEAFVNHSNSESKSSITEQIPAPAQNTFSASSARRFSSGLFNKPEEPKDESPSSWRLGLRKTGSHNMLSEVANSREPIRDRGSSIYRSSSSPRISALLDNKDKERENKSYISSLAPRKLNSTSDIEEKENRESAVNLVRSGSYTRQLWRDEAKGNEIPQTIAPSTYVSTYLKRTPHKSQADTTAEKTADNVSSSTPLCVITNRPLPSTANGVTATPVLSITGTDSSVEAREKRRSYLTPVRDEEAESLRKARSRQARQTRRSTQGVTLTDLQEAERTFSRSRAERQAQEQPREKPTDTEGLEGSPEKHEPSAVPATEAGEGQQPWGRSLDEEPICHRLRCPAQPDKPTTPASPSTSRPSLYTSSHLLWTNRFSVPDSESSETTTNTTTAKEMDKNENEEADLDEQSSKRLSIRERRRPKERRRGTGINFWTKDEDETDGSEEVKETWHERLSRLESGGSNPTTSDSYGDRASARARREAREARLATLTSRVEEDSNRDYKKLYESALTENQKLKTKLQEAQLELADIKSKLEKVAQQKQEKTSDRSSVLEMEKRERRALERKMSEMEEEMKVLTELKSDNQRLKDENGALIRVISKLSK

B1: Protein phosphatase 1 regulatory subunit 12B (PPP1R12B), Flag-tagged (protein, UniProt O60237-1 1-982)
chain: T1 sequence

What was measured:
[1] = biological target: T1, Protein phosphatase 1 regulatory subunit 12B (PPP1R12B), Flag-tagged (human); test: co-IP; anti-FLAG antibody precipitates Flag-PPP1R12B from lysates (IP buffer with protease inhibitors) of Huh7 and HepG2 overexpression cells, 4°C overnight, Protein A/G magnetic beads; PAK2 detected by Western blot; IgG as control
[2] = biological target: p21-activated kinase 2 (PAK2) (human (endogenous in Huh7 and HepG2)) (UniProt Q13177); test: co-IP; reciprocal: anti-PAK2 antibody precipitates endogenous PAK2 from lysate of Huh7 PPP1R12B overexpression cells, 4°C overnight, Protein A/G magnetic beads; PPP1R12B detected by Western blot; IgG as control

| binding [1] | binding [2] | Molecule |
| --- | --- | --- |
| binds |  | p21-activated kinase 2 (PAK2) (from UniProt Q13177 1-524) (enzyme) |
|  | binds | B1 |
